Assay results reported in PMC8534003, “The Chemokine-Based Peptide, CXCL9(74-103), Inhibits Angiogenesis by Blocking Heparan Sulfate Proteoglycan-Mediated Signaling of Multiple Endothelial Growth Factors” (Cancers, 2021).
These are yes or no findings as the source states them, for the method shown. Some binding calls cover weakened binding; strength is not graded here.

By UniProt entry, the sequences of proteins in these tests, tags left out. Residues count along the entry.
UniProt P09038, residues 143-288: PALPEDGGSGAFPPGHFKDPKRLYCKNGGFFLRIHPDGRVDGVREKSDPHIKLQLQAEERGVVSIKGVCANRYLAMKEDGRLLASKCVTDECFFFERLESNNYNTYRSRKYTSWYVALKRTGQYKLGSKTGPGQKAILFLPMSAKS

Target: human recombinant FGF-2 (human) (UniProt P09038)
Test: ELISA; ELISA-like direct binding assay: 96-well plates coated with 50 ng/mL growth factor in PBS at 4 °C overnight; blocked with 0.1% casein, 0.05% Tween 20 in PBS; biotinylated CXCL9(74-103) 1-1000 ng/mL, 37 °C, 1 h; detected with streptavidin-HRP; both purified

binding: binds
B1: biotinylated CXCL9(74-103) (peptide)
peptide: KKKQKNGKKHQKKKVLKVRKSQRSRQKKTT
modifications: biotin at the NH2-terminus
